Structures can show the parent of a compound that is named as a salt. The list shows a part of the results. Hit calls seldom repeat between salt and free forms of one compound.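 Kinases were expressed as nanoluciferase fusions in K562 cells and luminescence was read every 4 h between 2 and 18 h as percent of control, DMSO set to 100% and a positive control to 0%. A time point counts as decreased when the signal drops significantly (2 sigma). The hit call is the authors' own, does not follow from the count of time points alone, and its rule is not shown.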
Assays:
Assay in all cases: number of time points (of 5) at which kinase-Nluc abundance scored as decreased, DMSO-normalised (count); higher = more persistent destabilization
Conditions in all cases: K562; 2-18 h
ROR2 = ROR2 (UniProt Q01974)
RPS6KA1 = RPS6KA1 (UniProt Q15418)
SPHK1 = SPHK1 (UniProt Q9NYA1)
SRC = SRC (UniProt P12931)
STK24 = STK24 (UniProt Q9Y6E0)
STK38 = STK38 (UniProt Q15208)
SYK = SYK (UniProt P43405)
TEC = TEC (UniProt P42680)
TYK2 = TYK2 (UniProt P29597)
ULK3 = ULK3 (UniProt Q6PHR2)

The chains behind the UniProt entries cited, without tags or fusion partners. Where a name states a change or a piece, a line headed by the entry shows the natural chain unless it says otherwise.
UniProt Q01974, whole entry: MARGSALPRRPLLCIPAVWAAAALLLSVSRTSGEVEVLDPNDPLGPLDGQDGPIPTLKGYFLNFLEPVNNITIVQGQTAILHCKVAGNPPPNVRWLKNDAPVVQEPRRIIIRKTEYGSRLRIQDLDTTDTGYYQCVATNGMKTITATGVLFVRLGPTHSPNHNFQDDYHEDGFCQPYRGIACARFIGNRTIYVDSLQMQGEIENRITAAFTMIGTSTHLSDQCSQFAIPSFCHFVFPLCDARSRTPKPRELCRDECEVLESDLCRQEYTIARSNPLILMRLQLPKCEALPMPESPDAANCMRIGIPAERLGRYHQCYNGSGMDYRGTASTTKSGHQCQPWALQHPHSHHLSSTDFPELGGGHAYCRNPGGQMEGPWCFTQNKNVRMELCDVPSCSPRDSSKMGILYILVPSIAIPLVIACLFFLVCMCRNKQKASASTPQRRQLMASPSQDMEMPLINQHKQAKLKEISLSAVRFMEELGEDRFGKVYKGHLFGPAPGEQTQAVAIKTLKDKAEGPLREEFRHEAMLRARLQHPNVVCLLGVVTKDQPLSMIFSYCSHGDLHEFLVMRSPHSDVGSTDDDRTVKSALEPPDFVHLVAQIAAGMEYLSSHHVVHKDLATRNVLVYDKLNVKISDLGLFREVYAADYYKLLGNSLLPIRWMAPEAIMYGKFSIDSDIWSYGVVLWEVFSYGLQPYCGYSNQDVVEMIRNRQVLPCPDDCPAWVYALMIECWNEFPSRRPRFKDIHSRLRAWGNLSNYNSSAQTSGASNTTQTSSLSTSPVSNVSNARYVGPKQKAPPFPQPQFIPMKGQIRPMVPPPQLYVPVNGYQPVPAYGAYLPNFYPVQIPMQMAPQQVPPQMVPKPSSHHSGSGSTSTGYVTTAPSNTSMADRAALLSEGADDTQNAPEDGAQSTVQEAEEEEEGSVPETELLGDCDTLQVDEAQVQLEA
UniProt Q15418, whole entry: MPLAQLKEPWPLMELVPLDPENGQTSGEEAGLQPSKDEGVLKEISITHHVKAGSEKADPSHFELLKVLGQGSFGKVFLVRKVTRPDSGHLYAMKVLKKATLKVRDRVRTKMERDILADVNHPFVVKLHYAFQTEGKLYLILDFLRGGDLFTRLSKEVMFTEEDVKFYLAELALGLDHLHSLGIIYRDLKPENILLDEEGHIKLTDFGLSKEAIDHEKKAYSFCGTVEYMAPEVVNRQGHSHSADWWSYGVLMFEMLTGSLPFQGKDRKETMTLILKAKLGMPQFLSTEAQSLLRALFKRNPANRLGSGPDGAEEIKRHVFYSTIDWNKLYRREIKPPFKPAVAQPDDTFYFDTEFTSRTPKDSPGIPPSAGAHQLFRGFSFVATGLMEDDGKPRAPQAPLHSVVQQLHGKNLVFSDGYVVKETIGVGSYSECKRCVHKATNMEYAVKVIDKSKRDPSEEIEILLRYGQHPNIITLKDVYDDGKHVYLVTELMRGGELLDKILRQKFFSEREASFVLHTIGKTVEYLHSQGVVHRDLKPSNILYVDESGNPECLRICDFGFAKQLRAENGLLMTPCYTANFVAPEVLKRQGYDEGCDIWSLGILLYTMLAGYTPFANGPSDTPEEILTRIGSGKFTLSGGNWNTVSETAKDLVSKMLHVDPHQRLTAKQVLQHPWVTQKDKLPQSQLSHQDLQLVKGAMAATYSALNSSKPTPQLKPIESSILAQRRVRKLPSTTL
UniProt Q9NYA1, whole entry: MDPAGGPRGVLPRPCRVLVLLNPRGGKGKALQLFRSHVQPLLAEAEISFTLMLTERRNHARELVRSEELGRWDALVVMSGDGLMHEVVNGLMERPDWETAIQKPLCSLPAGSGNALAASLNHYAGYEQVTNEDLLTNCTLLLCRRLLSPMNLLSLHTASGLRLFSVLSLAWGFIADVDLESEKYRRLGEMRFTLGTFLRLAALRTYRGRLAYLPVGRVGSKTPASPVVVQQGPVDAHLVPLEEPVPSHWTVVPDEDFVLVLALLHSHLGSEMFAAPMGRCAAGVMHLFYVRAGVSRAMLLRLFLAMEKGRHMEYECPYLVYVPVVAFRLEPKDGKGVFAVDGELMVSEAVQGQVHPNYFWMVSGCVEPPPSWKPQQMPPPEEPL
UniProt Q9Y6E0: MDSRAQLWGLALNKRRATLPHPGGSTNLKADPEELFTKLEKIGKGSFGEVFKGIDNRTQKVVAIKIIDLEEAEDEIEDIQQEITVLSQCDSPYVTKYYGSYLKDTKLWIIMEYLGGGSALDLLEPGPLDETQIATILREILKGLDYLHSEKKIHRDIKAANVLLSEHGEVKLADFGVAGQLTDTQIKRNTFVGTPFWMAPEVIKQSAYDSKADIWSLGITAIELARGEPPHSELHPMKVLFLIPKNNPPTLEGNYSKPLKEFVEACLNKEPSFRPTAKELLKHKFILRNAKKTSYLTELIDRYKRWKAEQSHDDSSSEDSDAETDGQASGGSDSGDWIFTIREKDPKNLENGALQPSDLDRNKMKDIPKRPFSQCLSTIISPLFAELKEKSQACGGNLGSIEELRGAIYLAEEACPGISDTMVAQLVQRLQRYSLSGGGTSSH
UniProt Q15208: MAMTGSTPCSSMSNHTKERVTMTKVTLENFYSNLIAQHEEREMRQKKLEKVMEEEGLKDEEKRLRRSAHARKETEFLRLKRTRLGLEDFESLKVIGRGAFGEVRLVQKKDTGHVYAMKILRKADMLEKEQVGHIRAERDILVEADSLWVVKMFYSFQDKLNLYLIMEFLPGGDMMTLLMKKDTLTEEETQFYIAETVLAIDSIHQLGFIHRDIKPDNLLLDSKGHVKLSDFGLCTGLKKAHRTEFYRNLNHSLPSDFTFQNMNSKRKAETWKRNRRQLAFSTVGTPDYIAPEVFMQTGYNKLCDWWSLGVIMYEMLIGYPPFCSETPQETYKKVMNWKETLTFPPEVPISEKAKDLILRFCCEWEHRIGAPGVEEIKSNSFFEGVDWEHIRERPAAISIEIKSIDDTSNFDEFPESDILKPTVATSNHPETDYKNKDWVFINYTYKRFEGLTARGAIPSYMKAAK
UniProt P42680: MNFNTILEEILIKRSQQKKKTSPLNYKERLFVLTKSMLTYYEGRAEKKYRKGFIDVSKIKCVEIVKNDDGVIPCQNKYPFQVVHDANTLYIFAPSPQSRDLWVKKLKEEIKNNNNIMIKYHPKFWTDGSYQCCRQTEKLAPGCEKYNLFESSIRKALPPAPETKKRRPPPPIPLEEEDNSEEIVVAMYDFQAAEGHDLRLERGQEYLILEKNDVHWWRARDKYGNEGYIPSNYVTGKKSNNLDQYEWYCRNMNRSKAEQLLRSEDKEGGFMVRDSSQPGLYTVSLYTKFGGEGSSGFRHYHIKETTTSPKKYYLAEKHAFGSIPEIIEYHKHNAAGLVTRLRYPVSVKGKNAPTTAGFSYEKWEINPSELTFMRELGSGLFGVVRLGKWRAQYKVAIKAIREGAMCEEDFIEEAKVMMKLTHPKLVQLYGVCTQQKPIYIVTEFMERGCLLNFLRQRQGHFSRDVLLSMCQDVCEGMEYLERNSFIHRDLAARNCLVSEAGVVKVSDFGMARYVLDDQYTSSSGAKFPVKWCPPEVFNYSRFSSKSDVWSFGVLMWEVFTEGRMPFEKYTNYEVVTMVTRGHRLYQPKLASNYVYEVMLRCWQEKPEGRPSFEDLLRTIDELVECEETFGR
UniProt P29597: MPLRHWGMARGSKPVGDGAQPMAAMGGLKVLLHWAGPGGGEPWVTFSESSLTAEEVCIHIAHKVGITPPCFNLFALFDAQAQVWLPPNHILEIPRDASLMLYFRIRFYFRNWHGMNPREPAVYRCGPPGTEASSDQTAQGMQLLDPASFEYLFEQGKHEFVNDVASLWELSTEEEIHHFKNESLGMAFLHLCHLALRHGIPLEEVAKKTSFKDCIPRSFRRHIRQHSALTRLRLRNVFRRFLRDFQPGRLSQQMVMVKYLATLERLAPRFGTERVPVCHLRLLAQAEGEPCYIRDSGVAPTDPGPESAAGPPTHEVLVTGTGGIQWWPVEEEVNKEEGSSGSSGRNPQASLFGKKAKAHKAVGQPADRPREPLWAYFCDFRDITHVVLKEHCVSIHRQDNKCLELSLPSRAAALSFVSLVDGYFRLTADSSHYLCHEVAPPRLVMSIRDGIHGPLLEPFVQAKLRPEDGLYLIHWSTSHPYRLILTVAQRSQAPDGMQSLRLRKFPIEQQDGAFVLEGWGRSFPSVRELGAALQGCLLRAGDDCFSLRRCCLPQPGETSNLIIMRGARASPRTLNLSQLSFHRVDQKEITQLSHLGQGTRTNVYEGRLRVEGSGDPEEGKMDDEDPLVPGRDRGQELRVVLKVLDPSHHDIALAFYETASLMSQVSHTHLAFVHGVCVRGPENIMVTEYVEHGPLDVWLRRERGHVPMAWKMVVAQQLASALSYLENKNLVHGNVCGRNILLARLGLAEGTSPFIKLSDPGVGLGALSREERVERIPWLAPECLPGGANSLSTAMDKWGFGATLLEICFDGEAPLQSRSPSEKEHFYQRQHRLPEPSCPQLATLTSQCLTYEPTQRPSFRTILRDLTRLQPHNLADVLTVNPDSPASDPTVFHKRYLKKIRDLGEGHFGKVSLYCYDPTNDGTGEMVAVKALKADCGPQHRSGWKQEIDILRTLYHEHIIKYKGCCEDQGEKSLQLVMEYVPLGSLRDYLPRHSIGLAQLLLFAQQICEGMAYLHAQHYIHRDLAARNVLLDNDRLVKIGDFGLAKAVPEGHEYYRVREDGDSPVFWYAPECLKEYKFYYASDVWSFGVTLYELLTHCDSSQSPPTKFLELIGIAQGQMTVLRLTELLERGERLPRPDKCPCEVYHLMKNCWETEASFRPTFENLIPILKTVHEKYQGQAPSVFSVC
UniProt Q6PHR2: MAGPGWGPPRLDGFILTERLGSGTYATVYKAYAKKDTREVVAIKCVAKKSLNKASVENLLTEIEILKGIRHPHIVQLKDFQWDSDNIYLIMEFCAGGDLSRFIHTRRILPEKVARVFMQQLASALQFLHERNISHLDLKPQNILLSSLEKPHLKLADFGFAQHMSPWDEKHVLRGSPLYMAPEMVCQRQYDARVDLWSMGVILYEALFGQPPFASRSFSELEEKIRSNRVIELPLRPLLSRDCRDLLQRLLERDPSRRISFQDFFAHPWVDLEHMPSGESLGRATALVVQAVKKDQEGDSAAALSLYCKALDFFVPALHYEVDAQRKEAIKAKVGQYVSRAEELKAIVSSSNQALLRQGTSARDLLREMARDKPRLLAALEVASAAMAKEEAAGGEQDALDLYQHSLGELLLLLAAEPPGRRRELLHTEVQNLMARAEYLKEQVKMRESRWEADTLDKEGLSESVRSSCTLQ

| Compound | number of time points (ROR2) | number of time points (RPS6KA1) | number of time points (SPHK1) | number of time points (SRC) | number of time points (STK24) | number of time points (STK38) | number of time points (SYK) | number of time points (TEC) | number of time points (TYK2) | number of time points (ULK3) |
| --- | --- | --- | --- | --- | --- | --- | --- | --- | --- | --- |
| COc1cc(C(C)=O)cc(OC)c1O [Acetosyringone] (10 µM) | 0 | 0 | 0 | 0 | 0 | 0 | 0 | 0 | 0 | 0 |
| NCCCCCCNS(=O)(=O)c1cccc2c(Cl)cccc12 [W-7 (hydrochloride)] (10 µM) | 0 | 0 | 0 | 0 | 0 | 0 | 0 | 0 | 0 | 0 |
| CC1=C(C(=O)Nc2ccc3[nH]ncc3c2)C(c2ccc(F)cc2)NC(=O)N1 (stereo not given) (10 µM) | 0 | 0 | 0 | 0 | 0 | 0 | 0 | 0 | 0 | 0 |
| CCOc1c([C@H](C)n2nc(C)c3c(N)ncnc32)cc(Cl)c(F)c1[C@@H]1CNC(=O)C1 [Parsaclisib (hydrochloride)] (10 µM) | 0 | 0 | 0 | 0 | 0 | 0 | 0 | 0 | 0 | 0 |
| CC(C)n1cnc2c(Nc3cccc(Cl)c3)nc(NCCO)nc21 (10 µM) | 0 | 0 | 0 | 0 | 0 | 0 | 0 | 0 | 0 | 0 |
| CCCNC(=O)c1cn2ncnc(Nc3cc(C(=O)NC4CC4)ccc3C)c2c1C (10 µM) | 0 | 0 | 0 | 0 | 0 | 0 | 0 | 0 | 0 | 0 |
| CSc1ccc(CN2CCCC(Nc3ccc4[nH]ncc4c3)C2)cc1 (stereo not given) [Rho-Kinase-IN-1] (10 µM) | 0 | 0 | 0 | 0 | 0 | 0 | 0 | 0 | 0 | 0 |
| CC[C@H](C)[C@H](NC(=O)[C@H](CCC(=O)O)NC(=O)[C@H](CCCN=C(N)N)NC(=O)[C@H](CCCN=C(N)N)NC(=O)[C@@H](N)CCCCN)C(=O)N[C@@H](CC(C)C)C(=O)N[C@@H](CO)C(=O)N[C@@H](CCCN=C(N)N)C(=O)N[C@@H](CCCN=C(N)N)C(=O)N1CCC[C@H]1C(=O)N[C@@H](CO)C(=O)N[C@@H](Cc1ccc(O)cc1)C(=O)N[C@@H](CCCN=C(N)N)C(=O)O [CREBtide] (10 µM) | 0 | 0 | 0 | 0 | 0 | 0 | 0 | 0 | 0 | 0 |
| C[C@@H]1COCCN1c1cc(=O)n2c(n1)N(Cc1cncc(Cl)c1)[C@H](C(F)(F)F)CC2 (10 µM) | 0 | 0 | 0 | 0 | 0 | 0 | 0 | 0 | 0 | 0 |
| Cc1cnc(Nc2ccc(N3CCN(C)CC3)cc2)nc1Nc1cccc(S(=O)(=O)NC(C)(C)C)c1 (2.5 µM) | 0 | 0 | 0 | 0 | 0 | 0 | 0 | 0 | 0 | 0 |
| Nc1n[nH]c2cc(-c3ccc(=O)n(Cc4cccc(Cl)c4)c3)ccc12 (10 µM) | 0 | 0 | 0 | 0 | 0 | 0 | 0 | 0 | 0 | 0 |
| CC(C)Oc1ccc(-c2cnc3c(-c4ccnc5ccccc45)cnn3c2)cc1 (10 µM) | 0 | 0 | 0 | 0 | 0 | 0 | 0 | 0 | 0 | 0 |
| Cn1cc(-c2ccc(F)c(C(F)(F)F)c2)nc1C1CCN(c2ncnc3[nH]ncc23)CC1 (10 µM) | 0 | 0 | 0 | 0 | 0 | 0 | 0 | 0 | 0 | 0 |
| Nc1cc(C(F)F)c(-c2nc(N3C4CCC3COC4)nc(N3C4CCC3COC4)n2)cn1 (2.5 µM) | 0 | 0 | 0 | 0 | 0 | 0 | 0 | 0 | 0 | 0 |
| CC[C@@H]1C(=O)N(C)c2cnc(Nc3ccc(C(=O)N[C@H]4CC[C@H](N5CCN(CC6CC6)CC5)CC4)cc3OC)nc2N1C(C)C [Volasertib] (2.5 µM) | 0 | 0 | 0 | 0 | 0 | 0 | 0 | 0 | 0 | 0 |
| CC(C)N(C)c1nc2cc(C(=O)O)ccc2nc1-c1ccc(F)cc1 (10 µM) | 0 | 0 | 0 | 0 | 0 | 0 | 0 | 0 | 0 | 0 |
| CC(C)c1cnn2c(NCc3ccccc3-n3cccn3)nc(OC3CCCNC3)nc12 (stereo not given) (2.5 µM) | 0 | 0 | 0 | 0 | 0 | 0 | 0 | 0 | 0 | 0 |
| CCN1/C(=C/C(C)=O)Sc2ccc(OC)cc21 (10 µM) | 0 | 0 | 0 | 0 | 1 | 1 | 0 | 3 | 3 | 0 |
| Oc1ccccc1C(=S)N1CCCC1 (10 µM) | 0 | 0 | 0 | 0 | 0 | 0 | 0 | 0 | 0 | 0 |
| CN(C)C(=O)c1ccc(S(=O)(=O)c2ccc(NC(=O)[C@@](C)(O)C(F)(F)F)c(Cl)c2)cc1 (10 µM) | 0 | 0 | 0 | 0 | 0 | 0 | 0 | 0 | 0 | 0 |
| CNC(=O)c1cc(Oc2ccc3nc(N[C@@H]4CCCC[C@H]4O)sc3c2)ccn1 (10 µM) | 0 | 0 | 0 | 0 | 0 | 0 | 0 | 0 | 0 | 0 |
| O=C(O)CCc1ccc(NCc2cccc(Oc3ccccc3)c2)cc1 (10 µM) | 0 | 0 | 0 | 0 | 0 | 0 | 0 | 0 | 0 | 0 |

| Compound | number of time points (ROR2) | number of time points (RPS6KA1) | number of time points (SPHK1) | number of time points (SRC) | number of time points (STK24) | number of time points (STK38) | number of time points (SYK) | number of time points (TEC) | number of time points (TYK2) | number of time points (ULK3) |
| --- | --- | --- | --- | --- | --- | --- | --- | --- | --- | --- |
| CN1CC[C@H](c2c(O)cc(O)c3c(=O)cc(-c4ccc(C(F)(F)F)cc4Cl)oc23)[C@H]1CO [(2S,3R)-Voruciclib (hydrochloride)] (2.5 µM) | 0 | 0 | 0 | 0 | 0 | 0 | 0 | 0 | 0 | 0 |
| CCCCOc1ccc(CC/C=C2\SC(=O)N(CCN)C2=O)cc1 [K145 (hydrochloride)] (2.5 µM) | 0 | 0 | 0 | 0 | 0 | 0 | 0 | 0 | 0 | 0 |
| Cc1nc(NC(=O)NCCc2nnn(CCF)n2)sc1-c1ccc(S(C)(=O)=O)c(F)c1 (10 µM) | 0 | 0 | 3 | 0 | 0 | 0 | 0 | 0 | 0 | 0 |
| CCc1c(C)sc(NC(=S)NC(=O)c2ccc(Cl)cc2)c1C(N)=O (10 µM) | 0 | 0 | 0 | 0 | 0 | 0 | 0 | 0 | 0 | 0 |
| CN1CCN(CCCNc2ncc(Cl)c(-c3cc4c(C(=O)NC5CC5)cccc4s3)n2)CC1 (10 µM) | 0 | 0 | 0 | 0 | 0 | 0 | 0 | 0 | 0 | 0 |
| C=C(F)C(=O)N1CCN(c2nc(OC[C@@H]3CCCN3C)nc3c2CCN(c2cccc4cccc(Cl)c24)C3)C[C@@H]1CC#N (2.5 µM) | 0 | 0 | 0 | 0 | 0 | 0 | 0 | 0 | 0 | 0 |
| CC[C@@H]1[C@H](F)C(=O)N[C@@H]1COc1nccc2cc(C(N)=O)c(OC)cc12 (10 µM) | 0 | 0 | 0 | 0 | 0 | 0 | 0 | 0 | 0 | 0 |
| COc1ccccc1/C=C1\C(=O)Nc2ccccc21 (10 µM) | 0 | 0 | 0 | 0 | 0 | 0 | 0 | 0 | 0 | 0 |
| CC[C@@H](N)CNc1ccnc(-c2cc(-c3cnn(C)c3)ccc2O)n1 (2.5 µM) | 0 | 0 | 0 | 0 | 0 | 0 | 0 | 0 | 0 | 0 |
| NC(=O)c1ccc(-c2cnn3ccc(NCc4cccnc4)nc23)cc1 (2.5 µM) | 0 | 0 | 0 | 0 | 0 | 0 | 0 | 0 | 0 | 0 |
| COc1cc(-c2cc(-c3cc(OC)c(OC)c(OC)c3)cc(C(F)P(=O)(OCOC(=O)C(C)(C)C)OCOC(=O)C(C)(C)C)c2)cc(OC)c1OC (stereo not given) [Stafia-1-dipivaloyloxymethyl ester] (2.5 µM) | 0 | 0 | 0 | 0 | 0 | 0 | 0 | 0 | 0 | 0 |
| O=C(Nc1cccc(-c2nncn2C2CC2)c1)c1cc(-n2cnc(C3CC3)c2)ccn1 (10 µM) | 0 | 0 | 0 | 0 | 0 | 0 | 0 | 0 | 0 | 0 |
| N#Cc1ccc(-c2c(-c3ncn[nH]3)sc(N3CCOCC3)c2C#N)c(F)c1 (10 µM) | 0 | 0 | 0 | 0 | 0 | 0 | 0 | 0 | 0 | 0 |
| CN1C(=O)NC(Cc2c[nH]c3c(Cl)cccc23)C1=O (racemic) [Necrostatin 2 (racemate)] (10 µM) | 0 | 0 | 0 | 0 | 0 | 0 | 0 | 0 | 0 | 0 |
| CCc1ccc(C(=O)COc2ccc(CC3SC(=O)NC3=O)cc2)nc1 (stereo not given) (10 µM) | 0 | 0 | 0 | 0 | 0 | 0 | 0 | 0 | 0 | 0 |
| C=CC(=O)N1CCC[C@@H](n2nc(C(=O)Nc3ccc(CC(=O)N(C)C)c(C)c3C)c3c(N)ncnc32)C1 (10 µM) | 0 | 0 | 0 | 0 | 0 | 0 | 0 | 0 | 0 | 0 |
| CC(C)(C)Cn1c(N)nc2ccc(-c3[nH]c(C(C)(C)C)nc3-c3ccc(F)cc3)nc21 [Ralimetinib dimesylate] (2.5 µM) | 0 | 0 | 0 | 0 | 0 | 0 | 0 | 0 | 0 | 0 |
| CC(C)C[C@H](NC(=O)[C@H](CCCCN)NC(=O)[C@H](CO)NC(=O)[C@@H](N)CC(C)C)C(N)=O [LSKL, Inhibitor of Thrombospondin (TSP-1) (TFA)] (10 µM) | 0 | 0 | 0 | 0 | 0 | 0 | 0 | 0 | 0 | 0 |
| CCc1cccc(CC)c1NC(=O)c1nn(C)c2c1CCc1cnc(Nc3ccc(C(=O)NC4CCN(C)CC4)cc3OC(F)(F)F)nc1-2 (2 µM) | 0 | 0 | 0 | 0 | 0 | 0 | 0 | 0 | 0 | 0 |
| O=S(=O)(c1cccc2cnccc12)N1CCNCC1 (10 µM) | 0 | 0 | 0 | 0 | 0 | 0 | 0 | 0 | 0 | 0 |
| COc1ccc(-n2c(C)c([N+](=O)[O-])c3ccc(O)cc32)cc1 (10 µM) | 0 | 0 | 0 | 0 | 0 | 0 | 0 | 0 | 0 | 0 |

Complete entries as entered above. Values in the order: number of time points (ROR2)	number of time points (RPS6KA1)	number of time points (SPHK1)	number of time points (SRC)	number of time points (STK24)	number of time points (STK38)	number of time points (SYK)	number of time points (TEC)	number of time points (TYK2)	number of time points (ULK3)
`NC(=O)c1ccc(-c2cnn3ccc(NCc4cccnc4)nc23)cc1` (2.5 µM) in the list: 0	0	0	0	0	0	0	0	0	0
`CN1C(=O)NC(Cc2c[nH]c3c(Cl)cccc23)C1=O` (racemic) [Necrostatin 2 (racemate)] (10 µM) in the list: 0	0	0	0	0	0	0	0	0	0
